# This is one part of the list. Shown are side measurements of this screen, not its main read-out; they come without a call. Compounds called inactive in the main read-out are mostly missing here. Words in brackets tell the shape of the fitted curve; partial curves, single points and poor fits give uncertain potencies.
# Test: qHTS Assay to Find Inhibitors of Chronic Active B-Cell Receptor Signaling
# Conditions: ABC-DLBCL IkBa-CBG/CBR reporter, luminescence ratio (green luciferase fused to IkBa over red control in TMD8 lymphoma cells), 4 h
# Summary of the method: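 Doxycycline induced both beetle luciferases in TMD8 lymphoma cells; IKK-driven degradation limits the IkappaBalpha-fused green signal, while red luminescence normalises for cell number and nonspecific effects. Compounds tested up to 46 uM, 4 hrs.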
# [1] = measured here: CBR red luminescence, cell number
# [2] = measured here: IkBa-CBG green luminescence
Compound,AC50 [1],AC50 [2]
CSc1ccccc1NC(=O)C(=O)c1c[nH]c2ccccc12,"8.91 µM [falling, partial curve, poor fit]",–
NNc1nc2sc3c(c2c(=O)n1-c1ccccc1)CCCC3,"7.94 µM [falling, partial curve]",–
Cn1ncc(C(N)=O)c1NC(=S)NC(=O)c1ccc(Br)o1,"6.31 µM [rising, single point]",–
CCN(CC)CCN(C(=O)c1ccc2ncsc2c1)c1nc2cc3c(cc2s1)OCO3,"11.2 µM [falling, partial curve]",–
O=C(Nc1sc2c(c1C(=O)O)CCCCC2)c1cccs1,"8.91 µM [falling, partial curve]",–
Cc1ccc(-c2nc(N/N=C/c3cccnc3)c3ccccc3n2)cc1,"4.61 µM [falling, partial curve]",–
Nc1ccc2nc(Cc3ccccc3)[nH]c2c1,"35.5 µM [falling, single point]",–
CN(C(=S)NC(=O)C1(C)CC1(Cl)Cl)c1ccccc1 (stereo unspecified),"1.3 µM [falling, full curve]",–
CN(CC(CC(=O)Nc1nncs1)c1ccccc1)S(=O)(=O)c1ccccc1 (stereo unspecified),"8.2 µM [falling, partial curve]",–
CCCCCCC(=O)N/N=C1\CCCc2ccccc21,"1.64 µM [rising, full curve, poor fit]",–
CSc1ccc(/C=N/NC(=O)c2cccc(O)c2)cc1,"2.82 µM [falling, partial curve, poor fit]",–
COc1ccc(C2(C)NC(=O)N(CC(=O)Nc3ccc4c(c3)OCO4)C2=O)cc1OC (stereo unspecified),"35.5 µM [rising, single point]",–
CCOc1cc(C(c2c(C)[nH][nH]c2=O)c2c(C)[nH][nH]c2=O)ccc1OS(=O)(=O)c1ccc(C)cc1,"5.17 µM [rising, single point]","6.51 µM [falling, partial curve, poor fit]"
Cc1cc(C)n(-c2nc3ccccc3nc2Nc2ccc(CC(=O)O)cc2)n1,"8.2 µM [falling, partial curve, poor fit]",–
COc1ccc(C(=O)Cn2c(C(=O)/C=C/c3ccccc3)nc3ccccc32)cc1,"5.8 µM [falling, single point]",–
COc1ccc(C(=O)/C=C/Nc2ccccn2)c(OC)c1,"3.16 µM [falling, full curve]",–
O=c1[nH]c(SCc2cccc(Cl)c2)nc2[nH]ncc12,"5.01 µM [rising, partial curve, poor fit]",–
COc1ccc(CNC(=O)c2ccc(Cn3nc(C)c([N+](=O)[O-])c3C)o2)cc1,"2.82 µM [falling, partial curve, poor fit]",–
O=c1oc2ccccc2cc1-c1nc(-c2cccs2)no1,"14.1 µM [falling, partial curve, poor fit]",–
O=C(COS(=O)c1ccccc1)Nc1cc(Cl)ccc1N1CCOCC1 (stereo unspecified),"22.4 µM [falling, single point]",–
COc1cc(C(=O)NC(=S)Nc2ccc(Cl)cn2)cc(OC)c1OC,"3.16 µM [rising, partial curve, poor fit]",–

# Two compounds drawn at random from those above, as already listed:
Compound,AC50 [1],AC50 [2]
Cc1cc(C)n(-c2nc3ccccc3nc2Nc2ccc(CC(=O)O)cc2)n1,"8.2 µM [falling, partial curve, poor fit]",–
Nc1ccc2nc(Cc3ccccc3)[nH]c2c1,"35.5 µM [falling, single point]",–

# (next part)

Compound,AC50 [1],AC50 [2]
CS(=O)(=O)c1ccc(Cl)c(NC(=O)Nc2ccccc2)c1,"35.5 µM [falling, single point]",–
CCN(Cc1ccc(OC)c(COC)c1)CC1CCCN(CCc2cccc(F)c2)C1 (stereo unspecified),"35.5 µM [falling, single point]",–
COc1ccccc1OCCOc1ccccc1/C=N/n1cnnc1,"23.1 µM [falling, partial curve, poor fit]",–
Oc1[nH]c2ccccc2c1N=Nc1ccc(F)cc1,"20.6 µM [falling, single point]",–
Cc1ccc2cc(C(c3nnnn3Cc3ccccc3)N3CCc4ccccc43)c(=O)[nH]c2c1 (stereo unspecified),"0.461 µM [falling, partial curve, poor fit]",–
O=C(NCC(=O)N1CCCCC1)c1ccc2ccccc2c1,"8.91 µM [falling, partial curve]",–
CCS(=O)(=O)N1CCN(c2ccccc2F)CC1,"8.2 µM [rising, partial curve, poor fit]",–
Cc1cccc(NS(=O)(=O)c2cc(C(=O)OC(C)C(=O)NCc3ccc4c(c3)OCO4)ccc2C)c1 (stereo unspecified),"23.1 µM [falling, single point]",–
CCc1ccc(-c2nc(CS(=O)CC(=O)NCCCN3CCOCC3)c(C)o2)cc1 (stereo unspecified),"14.1 µM [falling, partial curve, poor fit]",–
O=C(NN1C(=O)c2ccccc2C1=O)c1ccccc1[N+](=O)[O-],"14.1 µM [falling, single point]",–
CCOC(=O)c1c(/N=C/N(C)C)sc(/C=N/Nc2ccccc2)c1-c1ccccc1,"10.3 µM [falling, partial curve]",–
COc1cc(OC)cc(Oc2ccc(S(=O)(=O)N3CCCCC3)cc2[N+](=O)[O-])c1,"20 µM [falling, single point]",–
CC(=O)c1cc(-c2ccc(F)cc2)n(CCC(=O)Nc2nc3ccc(C)cc3s2)c1C,"7.94 µM [rising, partial curve, poor fit]",–
Cc1ccc(-c2cc(C(=O)N3CCN(c4ncccn4)CC3)c3cc(Br)ccc3n2)o1,"11.2 µM [falling, partial curve]",–
Cc1cc2cc(CNC(=O)Cc3cccs3)ccc2n1C,"12.6 µM [falling, single point]",–
O=C(O)CCC(=O)Nc1ccccc1C(=O)NC1CCCCC1,"29.1 µM [falling, single point]",–
COc1ccccc1NC(=O)c1ccc2[nH]c(C)c(C)c2c1,"0.1 µM [rising, full curve, poor fit]",–
COc1cc(C(CC(=O)Nc2ncccc2C)N2Cc3ccccc3C2=O)cc(OC)c1OC (stereo unspecified),"0.112 µM [rising, full curve, poor fit]",–
COCc1cc(=O)n2[nH]c(C)c(-c3ccccc3)c2n1,"25.1 µM [falling, partial curve, poor fit]",–
COc1ccc(NC(=S)Nc2ccc(N)c([N+](=O)[O-])c2)cc1,"1.64 µM [falling, partial curve, poor fit]",–
N/C(=N\OC(=O)CSc1ccccc1)c1ccccn1,"2.51 µM [falling, full curve, poor fit]",–

# At a glance, two of the compounds above:
Compound,AC50 [1],AC50 [2]
Cc1cccc(NS(=O)(=O)c2cc(C(=O)OC(C)C(=O)NCc3ccc4c(c3)OCO4)ccc2C)c1 (stereo unspecified),"23.1 µM [falling, single point]",–
CCc1ccc(-c2nc(CS(=O)CC(=O)NCCCN3CCOCC3)c(C)o2)cc1 (stereo unspecified),"14.1 µM [falling, partial curve, poor fit]",–

# (more compounds)

Compound,AC50 [1],AC50 [2]
Cc1c(O)cccc1C(=O)N[C@@H](CSc1ccccc1)[C@H](O)CN1C[C@H]2CCCC[C@H]2C[C@H]1C(=O)NC(C)(C)C,"10 µM [falling, partial curve]","15.8 µM [rising, partial curve, poor fit]"
COc1cc(=O)n2c(-c3ccccc3)csc2n1,"2.24 µM [rising, full curve, poor fit]",–
COc1ccc(/C=C2\SC(=S)N(N3C(=O)CCC3=O)C2=O)cc1O,"35.5 µM [falling, single point]",–
CCOC(=O)Nc1sc2c(c1C#N)CCCC2,"10.3 µM [rising, partial curve, poor fit]",–
CC(C)[C@H]1COCCS(=O)(=O)N1Cc1ccccc1-c1ccc(F)cc1,"5.17 µM [falling, partial curve, poor fit]",–
Clc1ccc(CN2CCc3c([nH]c4ccccc34)C2)cc1Cl,"35.5 µM [falling, single point]",–
Cc1ccc(NC(=O)CN2C(=O)NC(C)(C3CC3)C2=O)c(C)c1 (stereo unspecified),"6.51 µM [rising, partial curve, poor fit]",–
CC(C)CNC(=S)NC(=O)c1ccc(Cl)cc1,"16.4 µM [rising, partial curve, poor fit]",–
Clc1ccc(OCCCCSc2ncccn2)cc1,"1.16 µM [rising, partial curve]",–
O=C(COC(=O)c1cccnc1Nc1cccc(C(F)(F)F)c1)NCc1ccc2c(c1)OCO2,"0.708 µM [rising, full curve, poor fit]",–
Oc1ccc(-c2nccc(-c3ccc(Br)cc3)n2)cc1,"7.08 µM [rising, partial curve, poor fit]",–
O=C(N/N=C/c1ccsc1)c1cc(-c2cccs2)nc2ccccc12,"6.51 µM [rising, partial curve]","18.4 µM [falling, single point]"
O=C(Nc1ccc2c(c1)OCCO2)c1cccs1,"14.6 µM [falling, partial curve, poor fit]",–
COc1ccccc1C(=O)NCCC(=O)N(C)CC(=O)Nc1ccccc1Br,"20.6 µM [rising, single point]",–
Cc1cccc(Oc2sc(C(=O)c3ccccc3)c(N)c2C#N)c1C,"22.4 µM [falling, partial curve, poor fit]",–
O=C1OCCN1C(=O)[C@H]1[C@H](c2ccc(F)cc2)C(c2ccccc2)=NN1c1ccc(Br)cc1,"29.1 µM [rising, single point]",–
COc1ccc(-n2c(COc3ccc4ccccc4c3)nnc2SCC(=O)NCc2ccco2)cc1,"29.1 µM [falling, single point]",–
COc1cccc(NC(=O)CSc2ncc(S(=O)(=O)c3ccccc3)c(=O)[nH]2)c1,"35.5 µM [falling, single point]",–
Cc1cccc(CN2C(=O)N/C(=C/c3cc(C)n(-c4cc(C)ccn4)c3C)C2=O)c1,"29.1 µM [falling, single point]",–
COc1cccc(C(=O)Oc2cc(-c3ccccc3)no2)c1,"7.31 µM [falling, single point]",–
COc1ccccc1-c1cc(N)n[nH]1,"4.11 µM [falling, full curve]",–

# — PubChem BioAssay AID493014 (National Center for Advancing Translational Sciences (NCATS), 2011)
